Measured data: PubChem BioAssay AID1508597 (Cure First, 2020)
Test: 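Survival screen with siRNA in ovarian cancer cells derived from patients, with or without rucaparib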 (primary screen). System: human ovarian carcinoma lines grown from tumours: OCI-P5x (papillary serous) and OCI-C5x (clear cell). Reagents: siRNA pool against human genes, 1.25 pmol siRNA per well. Timing: 72 h or 96 h, depending on the cell culture. Challenge: rucaparib 20 µM (about IC30) or vehicle, present until read-out. Rucaparib or vehicle: Rucaparib. Cell line: OCI-P5x (serous). Measured: 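Luminescent ATP-based viability assay read 72 or 96 h after transfection, depending on culture, given as normalised percent viability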. Reading the numbers: viability, normalised: higher = more viable cells remaining. Call rule: 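a well counts as a hit if its normalised viability is under 80 percent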. Calls: active = viability under 80%; inactive = viability 80% or more.
This is a random part of the about 2,100 reagents, in one setting of the screen. 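Calls flag viability under 80% in either arm, not effects specific to rucaparib; the reference for percent is not stated.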 Some reagents were tested in more than one well and are listed for each. Not stated in the record: the 100% reference.

target | PubChem SID | technical replicate | viability, normalised (%) | activity call
LRRK1 (leucine rich repeat kinase 1) | SID405528585 | 1 | 84.8 | inactive
LRRK1 (leucine rich repeat kinase 1) | SID405528585 | 2 | 79.4 | active
LRRK1 (leucine rich repeat kinase 1) | SID405528585 | 3 | 74.5 | active
POLK (DNA polymerase kappa) | SID405527873 | 1 | 64.2 | active
POLK (DNA polymerase kappa) | SID405527873 | 1 | 80.7 | inactive
POLK (DNA polymerase kappa) | SID405527873 | 2 | 63.9 | active
POLK (DNA polymerase kappa) | SID405527873 | 2 | 80.6 | inactive
POLK (DNA polymerase kappa) | SID405527873 | 3 | 73.4 | active
POLK (DNA polymerase kappa) | SID405527873 | 3 | 67.3 | active
DDX55 (DEAD-box helicase 55) | SID405528200 | 1 | 71.2 | active
DDX55 (DEAD-box helicase 55) | SID405528200 | 2 | 63.1 | active
DDX55 (DEAD-box helicase 55) | SID405528200 | 3 | 77.4 | active
GRK5 (G protein-coupled receptor kinase 5) | SID405527413 | 1 | 117 | inactive
GRK5 (G protein-coupled receptor kinase 5) | SID405527413 | 2 | 129 | inactive
GRK5 (G protein-coupled receptor kinase 5) | SID405527413 | 3 | 122 | inactive
GTF2H5 (general transcription factor IIH subunit 5) | SID405528458 | 1 | 77.8 | active
GTF2H5 (general transcription factor IIH subunit 5) | SID405528458 | 2 | 110 | inactive
GTF2H5 (general transcription factor IIH subunit 5) | SID405528458 | 3 | 70.5 | active
DRD2 (dopamine receptor D2) | SID405526735 | 1 | 38.8 | active
DRD2 (dopamine receptor D2) | SID405526735 | 2 | 40.9 | active
DRD2 (dopamine receptor D2) | SID405526735 | 3 | 51.7 | active
SNRK (SNF related kinase) | SID405527920 | 1 | 66.3 | active
SNRK (SNF related kinase) | SID405527920 | 2 | 85.2 | inactive
SNRK (SNF related kinase) | SID405527920 | 3 | 63.2 | active
MTA3 (metastasis associated 1 family member 3) | SID405527036 | 1 | 47.2 | active
MTA3 (metastasis associated 1 family member 3) | SID405527036 | 2 | 60.3 | active
MTA3 (metastasis associated 1 family member 3) | SID405527036 | 3 | 57.5 | active
STRADB (STE20 related adaptor beta) | SID405527921 | 1 | 101 | inactive
STRADB (STE20 related adaptor beta) | SID405527921 | 2 | 87.6 | inactive
STRADB (STE20 related adaptor beta) | SID405527921 | 3 | 87 | inactive
PRKG2 (protein kinase cGMP-dependent 2) | SID405527572 | 1 | 74.1 | active
PRKG2 (protein kinase cGMP-dependent 2) | SID405527572 | 2 | 103 | inactive
PRKG2 (protein kinase cGMP-dependent 2) | SID405527572 | 3 | 91.5 | inactive
SLX4 (SLX4 structure-specific endonuclease subunit) | SID405528286 | 1 | 70.7 | active
SLX4 (SLX4 structure-specific endonuclease subunit) | SID405528286 | 2 | 69.6 | active
SLX4 (SLX4 structure-specific endonuclease subunit) | SID405528286 | 3 | 98.7 | inactive
EIF5A2 (eukaryotic translation initiation factor 5A2) | SID405526422 | 1 | 62.5 | active
EIF5A2 (eukaryotic translation initiation factor 5A2) | SID405526422 | 2 | 56.4 | active
EIF5A2 (eukaryotic translation initiation factor 5A2) | SID405526422 | 3 | 79.3 | active
